Earlier results as cited in patent US10617722B2, “Honey-cannabinoid therapeutic composition” (Canna-B Cure Ltd, priority 2015, dated 2020).

In the case of CCCCCc1cc(O)c2c(c1)OC(C)(C)[C@@H]1CCC(C)=C[C@@H]21 [THC, tetrahydrocannabinol], the solubility in water is listed as 0.0028 gr/L.
